# Results are given in words; binding and its absence hold for the method and conditions named. In cells and extracts the contact can be indirect.
# Amino acid sequences for entries named in this document (tags omitted).
# UniProt Q96LD4: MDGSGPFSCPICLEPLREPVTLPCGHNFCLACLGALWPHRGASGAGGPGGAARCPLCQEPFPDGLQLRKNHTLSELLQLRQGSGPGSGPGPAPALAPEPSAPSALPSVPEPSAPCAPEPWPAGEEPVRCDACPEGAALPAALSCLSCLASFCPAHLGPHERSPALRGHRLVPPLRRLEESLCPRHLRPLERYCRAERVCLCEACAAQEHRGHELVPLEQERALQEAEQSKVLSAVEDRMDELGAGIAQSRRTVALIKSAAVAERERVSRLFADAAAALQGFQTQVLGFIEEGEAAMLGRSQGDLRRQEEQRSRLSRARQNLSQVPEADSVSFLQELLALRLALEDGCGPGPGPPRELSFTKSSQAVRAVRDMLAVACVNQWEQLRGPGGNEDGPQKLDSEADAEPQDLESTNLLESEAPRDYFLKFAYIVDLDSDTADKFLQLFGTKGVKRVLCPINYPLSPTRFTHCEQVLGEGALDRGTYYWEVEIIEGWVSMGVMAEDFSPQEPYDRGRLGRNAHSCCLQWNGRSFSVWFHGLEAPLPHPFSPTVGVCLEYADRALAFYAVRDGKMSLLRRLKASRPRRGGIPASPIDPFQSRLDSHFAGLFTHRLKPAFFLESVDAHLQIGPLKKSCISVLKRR
# UniProt Q9Y6K9: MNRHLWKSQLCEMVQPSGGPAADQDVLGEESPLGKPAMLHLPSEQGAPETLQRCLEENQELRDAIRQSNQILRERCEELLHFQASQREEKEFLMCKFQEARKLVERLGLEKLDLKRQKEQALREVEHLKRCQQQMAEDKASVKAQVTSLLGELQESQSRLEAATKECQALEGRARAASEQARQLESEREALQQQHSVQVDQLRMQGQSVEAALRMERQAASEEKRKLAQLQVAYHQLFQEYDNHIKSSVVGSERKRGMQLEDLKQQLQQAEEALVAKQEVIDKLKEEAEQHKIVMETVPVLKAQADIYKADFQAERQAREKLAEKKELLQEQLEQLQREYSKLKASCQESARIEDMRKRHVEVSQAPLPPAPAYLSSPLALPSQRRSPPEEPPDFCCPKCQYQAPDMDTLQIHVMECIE
# UniProt P25963: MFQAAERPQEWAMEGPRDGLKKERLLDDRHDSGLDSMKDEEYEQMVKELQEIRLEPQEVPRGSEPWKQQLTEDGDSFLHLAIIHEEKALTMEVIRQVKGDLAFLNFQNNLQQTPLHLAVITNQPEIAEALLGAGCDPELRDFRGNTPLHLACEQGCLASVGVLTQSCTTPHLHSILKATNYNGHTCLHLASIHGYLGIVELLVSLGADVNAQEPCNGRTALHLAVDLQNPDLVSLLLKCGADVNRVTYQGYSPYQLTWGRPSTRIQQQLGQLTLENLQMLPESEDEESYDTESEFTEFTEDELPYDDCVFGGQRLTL
# B1: TAK1 (protein, UniProt O43318 1-606)
# chain: MSTASAASSSSSSSAGEMIEAPSQVLNFEEIDYKEIEVEEVVGRGAFGVVCKAKWRAKDVAIKQIESESERKAFIVELRQLSRVNHPNIVKLYGACLNPVCLVMEYAEGGSLYNVLHGAEPLPYYTAAHAMSWCLQCSQGVAYLHSMQPKALIHRDLKPPNLLLVAGGTVLKICDFGTACDIQTHMTNNKGSAAWMAPEVFEGSNYSEKCDVFSWGIILWEVITRRKPFDEIGGPAFRIMWAVHNGTRPPLIKNLPKPIESLMTRCWSKDPSQRPSMEEIVKIMTHLMRYFPGADEPLQYPCQYSDEGQSNSATSTGSFMDIASTNTSNKSDTNMEQVPATNDTIKRLESKLLKNQAKQQSESGRLSLGASRGSSVESLPPTSEGKRMSADMSEIEARIAATTAYSKPKRGHRKTASFGNILDVPEIVISGNGQPRRRSIQDLTVTGTEPGQVSSRSSSPSVRMITTSGPTSEKPTRSHPWTPDDSTDTNGSDNSIPMAYLTLDHQLQPLAPCPNSKESMAVFEQHCKMAQEYMKVQTEIALLLQRKQELVAELDQDEKDQQNTSRLVQEHKKLLDENKSLSTYYQQCKKQLEVIRSQQQKRQGTS
# Molecular target: Flag-TRIM47 (human) (UniProt Q96LD4)
# Assay: co-IP; HUVECs transfected with Flag or Flag-TRIM47 plasmid for 48 h, MG132 10 μM for 1 h before harvesting, TNFα 10 ng/mL for 15 min; whole-cell lysates immunoprecipitated with Flag antibody, protein G-agarose (2 h, 4 °C); precipitates immunoblotted
row,Molecule,binding
1,IKKγ (from UniProt Q9Y6K9 1-419),no binding
2,IκBα (from UniProt P25963 1-317),no binding
3,B1,no binding
